# Patent US20250250582A1, “Plant Cells and Plants Modified to Increase Herbicide Resistance and Stress Tolerance and Methods of Using the Same” (The Board of Trustees of the University of Arkansas, priority 2018, published 2025)
# No dose or concentration is given here for some results.
# System: susceptible E. colona (ECO-S)
# Assay: Gene ontology enrichment analysis following herbicide treatment in ECO-S
# Format: in vivo, Echinochloa colona
# Details: 24 h
row,SMILES,enriched gene ontology terms unique to the herbicide
1,O=C(O)c1c(Cl)ccc2cc(Cl)cnc12 [quinclorac],14
2,CCC(=O)Nc1ccc(Cl)c(Cl)c1 [propanil],19
3,CP(=O)(O)CCC(N)C(=O)O (stereo not shown) [glufosinate],68
4,C[C@@H](Oc1ccc(Oc2ccc(C#N)cc2F)cc1)C(=O)O [cyhalofop],26
